Assay results taken from article PMC13132546.

The chains behind the UniProt entries cited, without tags or fusion partners.
UniProt Q9NYF3: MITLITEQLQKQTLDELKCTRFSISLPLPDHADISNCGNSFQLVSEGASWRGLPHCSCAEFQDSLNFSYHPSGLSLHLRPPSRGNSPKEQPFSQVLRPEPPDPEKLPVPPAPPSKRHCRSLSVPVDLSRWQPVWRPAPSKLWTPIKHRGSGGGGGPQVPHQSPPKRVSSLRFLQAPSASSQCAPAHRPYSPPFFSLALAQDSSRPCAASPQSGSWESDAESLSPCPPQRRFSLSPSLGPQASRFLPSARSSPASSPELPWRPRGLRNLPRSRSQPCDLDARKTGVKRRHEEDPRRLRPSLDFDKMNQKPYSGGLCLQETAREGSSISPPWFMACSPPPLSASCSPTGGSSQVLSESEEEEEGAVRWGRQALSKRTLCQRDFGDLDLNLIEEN
UniProt P53350: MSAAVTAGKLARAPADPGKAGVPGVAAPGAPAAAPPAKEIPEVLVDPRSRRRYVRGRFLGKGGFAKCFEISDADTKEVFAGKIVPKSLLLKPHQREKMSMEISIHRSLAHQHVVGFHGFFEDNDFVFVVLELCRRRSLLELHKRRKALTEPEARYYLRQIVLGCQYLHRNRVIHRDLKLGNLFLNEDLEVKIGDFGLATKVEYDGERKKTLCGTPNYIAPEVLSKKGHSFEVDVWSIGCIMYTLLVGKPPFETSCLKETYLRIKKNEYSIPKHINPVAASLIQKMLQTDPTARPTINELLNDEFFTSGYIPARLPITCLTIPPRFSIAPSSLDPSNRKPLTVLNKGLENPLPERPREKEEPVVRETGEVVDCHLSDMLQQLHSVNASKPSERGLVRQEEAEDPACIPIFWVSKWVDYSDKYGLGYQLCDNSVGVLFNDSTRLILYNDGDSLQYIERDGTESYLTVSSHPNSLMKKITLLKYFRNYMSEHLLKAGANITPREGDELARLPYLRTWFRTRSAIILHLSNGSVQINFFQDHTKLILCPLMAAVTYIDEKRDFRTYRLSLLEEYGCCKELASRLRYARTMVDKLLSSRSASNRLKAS
UniProt O14965: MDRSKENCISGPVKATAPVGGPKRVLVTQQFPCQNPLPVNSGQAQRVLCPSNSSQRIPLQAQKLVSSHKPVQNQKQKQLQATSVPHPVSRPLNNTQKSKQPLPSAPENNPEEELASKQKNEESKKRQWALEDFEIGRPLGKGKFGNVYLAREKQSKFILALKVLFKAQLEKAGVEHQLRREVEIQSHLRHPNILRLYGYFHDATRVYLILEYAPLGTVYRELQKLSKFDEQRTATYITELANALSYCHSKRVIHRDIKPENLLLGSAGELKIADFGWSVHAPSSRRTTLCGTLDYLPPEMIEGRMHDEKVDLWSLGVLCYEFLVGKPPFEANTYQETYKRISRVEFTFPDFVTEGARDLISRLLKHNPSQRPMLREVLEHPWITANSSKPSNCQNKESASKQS

Target: LAP-tagged FAM53C (GFP- and S-tagged) (UniProt Q9NYF3)
Experiment: affinity purification with mass spectrometry; tandem affinity purification of LAP-tagged FAM53C from HEK-293T lysate (GFP-coupled beads, PreScission cleavage, S-protein agarose; washes with 200 mM KCl, 0.05% NP40), in-gel digestion, LC-MS/MS

binding | Substance
binds | PLK1 (from UniProt P53350 1-603) (enzyme)
binds | AURKA (from UniProt O14965 1-403) (enzyme)

No constants are given. Whether binding was seen depends on the method and setting. Binding seen in cells or lysates may run through a third protein. Here binding means that the protein was enriched with, or labelled near, the bait; the list need not be complete.
